Measured values: patent US10563263B2, “Genetic polymorphisms associated with statin response and cardiovascular diseases, methods of detection and uses thereof” (CELERA CORPORATION, priority 2010, dated 2020)
Further values from the same series stand in other lists.

Tested on: CHD
Experiment: Meta-analysis of CARE and WOSCOPS combined, synergy index, CHD endpoint
Type: in vivo, human
Source text: Tables 4-5 provide meta-analyses of CARE and WOSCOPS combined (2nd section of each table) for two endpoints (CHD and CVD) and three genetic models (dominant, recessive, and additive), as well as logistic regression analyses of CARE (3rd section of each table) and WOSCOPS (4th section of each table) individually.
Tables 12 and 17 provide results of meta-analysis of the CARE and WOSCOPS sample sets combined by direct genotyping and by imputing genotypes.
“P” indicates the p-value, and “P(R)” (or “P.R.”) indicates the p-value random effect. Both of these are p-values corresponding to a statistical test of whether the combined synergy index is equal to one but use different assumptions to derive the p-value. “P” is calculated using a fixed effects model, and “P(R)” is calculated using a random effects model.
“OR” indicates the odds ratio (synergy index) calculated from a fixed effects model, and “OR(R)” (or “OR.R.”) indicates the odds ratio (synergy index) calculated from a random effects model.

[1] = SNP rs1463768, allele (A1) G, RECESSIVE, Genotyped
[2] = SNP rs1463769, allele (A1) G, RECESSIVE, Imputed
[3] = SNP rs1472435, allele (A1) A, ADDITIVE, Imputed
[4] = SNP rs1472435, allele (A1) A, DOMINANT, Imputed
[5] = SNP rs1476714, allele (A1) A, DOMINANT, Imputed
[6] = SNP rs1495159, allele (A1) G, ADDITIVE, Imputed
[7] = SNP rs1495159, allele (A1) G, GENOTYPIC, Imputed
[8] = SNP rs1495375, allele (A1) A, DOMINANT, Imputed
[9] = SNP rs1495376, allele (A1) T, DOMINANT, Imputed
[10] = SNP rs1495377, allele (A1) G, DOMINANT, Imputed
[11] = SNP rs1495381, allele (A1) T, GENOTYPIC, Imputed
[12] = SNP rs1495381, allele (A1) T, RECESSIVE, Imputed
[13] = SNP rs1498992, allele (A1) G, DOMINANT, Imputed
[14] = SNP rs1499001, allele (A1) T, DOMINANT, Imputed
[15] = SNP rs1512988, allele (A1) A, DOMINANT, Imputed
[16] = SNP rs1512989, allele (A1) T, DOMINANT, Imputed
[17] = SNP rs1512991, allele (A1) T, ADDITIVE, Imputed
[18] = SNP rs1512991, allele (A1) T, DOMINANT, Imputed
[19] = SNP rs1516855, allele (A1) G, RECESSIVE, Imputed
[20] = SNP rs1527450, allele (A1) T, ADDITIVE, Imputed
[21] = SNP rs1527450, allele (A1) T, GENOTYPIC, Imputed
[22] = SNP rs1567740, allele (A1) T, DOMINANT, Imputed
[23] = SNP rs1572573, allele (A1) A, ADDITIVE, Imputed
[24] = SNP rs1572573, allele (A1) A, DOMINANT, Imputed
[25] = SNP rs1584003, allele (A1) C, DOMINANT, Imputed
[26] = SNP rs1584005, allele (A1) C, DOMINANT, Imputed
[27] = SNP rs1585771, allele (A1) G, ADDITIVE, Imputed
[28] = SNP rs1592015, allele (A1) G, DOMINANT, Imputed
[29] = SNP rs1594885, allele (A1) A, ADDITIVE, Imputed
[30] = SNP rs1603232, allele (A1) A, DOMINANT, Imputed
[31] = SNP rs1614565, allele (A1) C, DOMINANT, Imputed
[32] = SNP rs1648200, allele (A1) G, ADDITIVE, Imputed
[33] = SNP rs1694334, allele (A1) G, ADDITIVE, Imputed
[34] = SNP rs1700400, allele (A1) T, ADDITIVE, Imputed
[35] = SNP rs1705237, allele (A1) A, DOMINANT, Imputed
[36] = SNP rs1705261, allele (A1) A, GENOTYPIC, Imputed
[37] = SNP rs1705261, allele (A1) A, RECESSIVE, Imputed
[38] = SNP rs1782328, allele (A1) A, ADDITIVE, Imputed
[39] = SNP rs1796337, allele (A1) T, DOMINANT, Imputed
[40] = SNP rs1798083, allele (A1) C, DOMINANT, Imputed
[41] = SNP rs1798085, allele (A1) T, DOMINANT, Imputed
[42] = SNP rs1798086, allele (A1) T, DOMINANT, Imputed
[43] = SNP rs1798089, allele (A1) C, GENOTYPIC, Imputed
[44] = SNP rs1798089, allele (A1) C, RECESSIVE, Imputed
[45] = SNP rs1798090, allele (A1) C, GENOTYPIC, Imputed
[46] = SNP rs1798090, allele (A1) C, RECESSIVE, Imputed
[47] = SNP rs1832222, allele (A1) G, DOMINANT, Imputed
[48] = SNP rs1838104, allele (A1) A, ADDITIVE, Imputed
[49] = SNP rs1838104, allele (A1) A, GENOTYPIC, Imputed

CC[C@H](C)C(=O)O[C@H]1C[C@H](O)C=C2C=C[C@H](C)[C@H](CC[C@@H](O)C[C@@H](O)CC(=O)O)[C@H]21 [Pravastatin, pravastatin]
OR [1]: 1.8009 | OR(R) [1]: 1.8886 | OR [2]: 1.8295 | OR(R) [2]: 1.9062 | OR [3]: 0.5022 | OR(R) [3]: 0.4908 | OR [4]: 0.5076 | OR(R) [4]: 0.4938 | OR [5]: 0.5726 | OR(R) [5]: 0.5726 | OR [6]: 0.6509 | OR(R) [6]: 0.6509 | OR [7]: 0.3915 | OR(R) [7]: 0.3915 | OR [8]: 0.5962 | OR(R) [8]: 0.5962 | OR [9]: 0.5347 | OR(R) [9]: 0.5347 | OR [10]: 0.5484 | OR(R) [10]: 0.5467 | OR [11]: 1.8616 | OR(R) [11]: 1.8616 | OR [12]: 1.9326 | OR(R) [12]: 1.9326 | OR [13]: 0.6213 | OR(R) [13]: 0.6213 | OR [14]: 0.6214 | OR(R) [14]: 0.6214 | OR [15]: 0.5976 | OR(R) [15]: 0.5976 | OR [16]: 0.5976 | OR(R) [16]: 0.5976 | OR [17]: 0.7391 | OR(R) [17]: 0.7391 | OR [18]: 0.5816 | OR(R) [18]: 0.5816 | OR [19]: 2.1755 | OR(R) [19]: 2.1755 | OR [20]: 1.486 | OR(R) [20]: 1.486 | OR [21]: 2.2868 | OR(R) [21]: 2.2868 | OR [22]: 0.596 | OR(R) [22]: 0.596 | OR [23]: 1.6309 | OR(R) [23]: 1.6309 | OR [24]: 1.8564 | OR(R) [24]: 1.8564 | OR [25]: 1.8445 | OR(R) [25]: 1.8445 | OR [26]: 1.8227 | OR(R) [26]: 1.8227 | OR [27]: 1.4824 | OR(R) [27]: 1.4824 | OR [28]: 0.5728 | OR(R) [28]: 0.5728 | OR [29]: 1.5121 | OR(R) [29]: 1.5121 | OR [30]: 0.5656 | OR(R) [30]: 0.5656 | OR [31]: 0.5357 | OR(R) [31]: 0.5357 | OR [32]: 1.4867 | OR(R) [32]: 1.4867 | OR [33]: 0.6436 | OR(R) [33]: 0.6436 | OR [34]: 0.6508 | OR(R) [34]: 0.6508 | OR [35]: 0.5283 | OR(R) [35]: 0.5283 | OR [36]: 1.8782 | OR(R) [36]: 1.8782 | OR [37]: 1.9326 | OR(R) [37]: 1.9326 | OR [38]: 0.6019 | OR(R) [38]: 0.6019 | OR [39]: 0.576 | OR(R) [39]: 0.576 | OR [40]: 0.5525 | OR(R) [40]: 0.5525 | OR [41]: 0.538 | OR(R) [41]: 0.538 | OR [42]: 0.5214 | OR(R) [42]: 0.5214 | OR [43]: 1.9613 | OR(R) [43]: 1.9613 | OR [44]: 1.9649 | OR(R) [44]: 1.9649 | OR [45]: 1.9722 | OR(R) [45]: 1.9722 | OR [46]: 1.941 | OR(R) [46]: 1.941 | OR [47]: 1.6153 | OR(R) [47]: 1.6079 | OR [48]: 0.6927 | OR(R) [48]: 0.6927 | OR [49]: 0.4828 | OR(R) [49]: 0.4828
